From article PMC5688089
No constants are given. Whether binding was seen depends on the method and setting. Binding seen in cells or lysates may run through a third protein. Some entries that bind do so weakly or less than the wild type.

By UniProt entry, the sequences of proteins in these tests, tags left out. Residues count along the entry.
UniProt P20491, residues 19-86: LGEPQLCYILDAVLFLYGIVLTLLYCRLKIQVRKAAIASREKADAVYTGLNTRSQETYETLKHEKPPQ
UniProt P29351: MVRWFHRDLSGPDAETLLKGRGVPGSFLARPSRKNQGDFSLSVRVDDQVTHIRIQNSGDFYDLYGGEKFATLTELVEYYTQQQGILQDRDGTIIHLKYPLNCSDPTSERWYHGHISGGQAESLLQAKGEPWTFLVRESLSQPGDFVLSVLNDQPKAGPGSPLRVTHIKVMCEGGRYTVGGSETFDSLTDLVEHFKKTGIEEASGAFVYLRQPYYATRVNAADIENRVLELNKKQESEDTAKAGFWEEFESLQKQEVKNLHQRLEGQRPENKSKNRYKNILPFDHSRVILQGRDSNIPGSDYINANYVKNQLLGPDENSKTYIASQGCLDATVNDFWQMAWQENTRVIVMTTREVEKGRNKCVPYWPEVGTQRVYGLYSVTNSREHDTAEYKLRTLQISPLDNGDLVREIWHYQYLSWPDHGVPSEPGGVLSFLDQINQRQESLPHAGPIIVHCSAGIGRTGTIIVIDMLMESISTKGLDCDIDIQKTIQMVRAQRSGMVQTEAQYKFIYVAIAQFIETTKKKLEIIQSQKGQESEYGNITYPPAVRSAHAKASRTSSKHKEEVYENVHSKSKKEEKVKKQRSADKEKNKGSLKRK

What was measured:
[1] = molecular target: Fc-receptor common γ subunit (FcRγ) (mouse (endogenous in BMMs)) (UniProt P20491); test: co-IP; endogenous proteins from lysates of mouse BMMs (WT or DJ-1 KO) starved 5 h and stimulated with RANKL (100 ng/ml), with or without H2O2 (100 μM); lysis in 20 mM HEPES pH 7.5, 150 mM NaCl, 1% Nonidet P-40, 60 mM octyl β-glucoside; overnight at 4 °C with specific antibodies, protein A/G-agarose; immunoblot
[2] = molecular target: T1, TNF receptor-associated factor 6 (TRAF6) (mouse (endogenous in BMMs)) (UniProt P70196); test: as above
T1 sequence: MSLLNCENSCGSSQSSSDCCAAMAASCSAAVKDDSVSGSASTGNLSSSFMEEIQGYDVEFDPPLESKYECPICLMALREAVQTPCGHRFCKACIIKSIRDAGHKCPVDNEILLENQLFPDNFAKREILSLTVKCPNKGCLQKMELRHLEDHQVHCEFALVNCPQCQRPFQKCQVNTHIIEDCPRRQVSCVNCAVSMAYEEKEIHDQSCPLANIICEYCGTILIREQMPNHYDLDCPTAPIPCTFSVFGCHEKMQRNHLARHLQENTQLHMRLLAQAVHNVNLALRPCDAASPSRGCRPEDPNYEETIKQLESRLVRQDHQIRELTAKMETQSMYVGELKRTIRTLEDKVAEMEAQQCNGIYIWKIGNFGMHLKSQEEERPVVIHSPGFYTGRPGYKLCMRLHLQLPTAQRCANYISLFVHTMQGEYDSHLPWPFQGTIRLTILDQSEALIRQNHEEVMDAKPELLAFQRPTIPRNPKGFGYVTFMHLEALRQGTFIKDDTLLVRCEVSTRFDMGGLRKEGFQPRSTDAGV

- binding [1]: binds
- binding [2]: binds
Substance: Src homology region 2 domain-containing phosphatase-1 (SHP-1) (from UniProt P29351 1-595) (enzyme)
